Where a name gives a salt, the structure may show the parent alone. For at least one compound, name, drawing or mass did not settle the structure.
Assay: Glutathione depletion assay (Michael addition to reduced glutathione, followed by 1H NMR)
Type: physicochemical
Conditions: 2 equiv. reduced glutathione, d6-DMSO, 35° C.
Source text: See, for example, Lehmann et al. Dimethyfumarate Induces Immunosuppression via Glutathione Depletion and Subsequent Induction of Heme Oxygenase 1, Journal of Investigative Dermatology (2007) 127, 835-845. Accordingly, the present compounds may be assessed in vitro by reaction with glutathione as follows:
(with the top securely fastened).
In all the above cases, dis-appearance of the alkene proton signals from the starting material are used to determine the extent of Michael reaction with glutathione.
As would be understood by those of skill in the art, the above experiments can be repeated by varying the equivalents of reduced glutathione (0.5 to 2 equivalents); the reactions can also be run in a mixture of d6-DMSO and D2O; and the temperature of the reaction can also be varied from room temperature to 35° C. (35° C. being used to mimic body temperature). As used herein “majority reaction” means a greater than 50% reduction in alkene proton signal as observed by ^1H NMR.

For `COC(=O)/C=C/C(=O)O` [Monomethyl fumarate, monomethylfumarate], the “time to majority reaction with glutathione (greater than 50% reduction in alkene proton signal by 1H NMR)” value was at most 27 h.
